Test results: PMC7650656
Results are given in words; binding and its absence hold for the method and conditions named. In cells and extracts the contact can be indirect. Binding calls can cover weak binding; strength is not graded here. For some assays here: Tags and fused reporters may be left off the sequences shown.

What was measured:
[1] = biological target: OsRLCK311-ΔN-Venus^N (rice (Oryza sativa)); experiment: split reporter; BiFC: Venus^N and SCFP^C fusions transiently expressed in Nicotiana benthamiana leaves, confocal microscopy two days after infiltration
[2] = biological target: OsRLCK311FL-Venus^N (rice (Oryza sativa)); experiment: as above
[3] = biological target: Full-length OsRLCK311-FL fused with GFP (rice (Oryza sativa)); experiment: co-IP; GFP and RFP fusions co-infiltrated in Nicotiana benthamiana leaves, lysate 2 days after infiltration, anti-GFP magnetic beads, blots with anti-GFP and anti-RFP
[4] = biological target: OsRLCK311-ΔN fused with GFP (rice (Oryza sativa)); experiment: as above

Row | Binder | binding [1] | binding [2] | binding [3] | binding [4]
1 | OsPIP2;1-SCFP^C (protein, UniProt Q8H5N9 1-290) MGKDEVMESGGAAGEFAAKDYTDPPPAPLIDAAELGSWSLYRAVIAEFIATLLFLYITVATVIGYKHQTDASASGADAACGGVGVLGIAWAFGGMIFILVYCTAGISGGHINPAVTFGLFLARKVSLVRAILYIVAQCLGAICGVGLVKAFQSAYFNRYGGGANTLAAGYSKGTGLAAEIIGTFVLVYTVFSATDPKRNARDSHVPVLAPLPIGFAVFMVHLATIPITGTGINPARSIGAAVIFNNEKAWHNHWIFWVGPFVGAAIAAFYHQYILRAGAIKALGSFRSNA | binds | binds |  | 
2 | AtPIP2;1-RFP (protein, UniProt P43286 1-287) MAKDVEAVPGEGFQTRDYQDPPPAPFIDGAELKKWSFYRAVIAEFVATLLFLYITVLTVIGYKIQSDTDAGGVDCGGVGILGIAWAFGGMIFILVYCTAGISGGHINPAVTFGLFLARKVSLPRALLYIIAQCLGAICGVGFVKAFQSSYYTRYGGGANSLADGYSTGTGLAAEIIGTFVLVYTVFSATDPKRSARDSHVPVLAPLPIGFAVFMVHLATIPITGTGINPARSFGAAVIYNKSKPWDDHWIFWVGPFIGAAIAAFYHQFVLRASGSKSLGSFRSAANV |  |  | binds | binds
3 | AtPIP2;1-SCFP^C (protein, UniProt P43286 1-287) MAKDVEAVPGEGFQTRDYQDPPPAPFIDGAELKKWSFYRAVIAEFVATLLFLYITVLTVIGYKIQSDTDAGGVDCGGVGILGIAWAFGGMIFILVYCTAGISGGHINPAVTFGLFLARKVSLPRALLYIIAQCLGAICGVGFVKAFQSSYYTRYGGGANSLADGYSTGTGLAAEIIGTFVLVYTVFSATDPKRSARDSHVPVLAPLPIGFAVFMVHLATIPITGTGINPARSFGAAVIYNKSKPWDDHWIFWVGPFIGAAIAAFYHQFVLRASGSKSLGSFRSAANV | binds | binds |  | 
4 | OsPIP2;1-RFP (protein, UniProt Q8H5N9 1-290) MGKDEVMESGGAAGEFAAKDYTDPPPAPLIDAAELGSWSLYRAVIAEFIATLLFLYITVATVIGYKHQTDASASGADAACGGVGVLGIAWAFGGMIFILVYCTAGISGGHINPAVTFGLFLARKVSLVRAILYIVAQCLGAICGVGLVKAFQSAYFNRYGGGANTLAAGYSKGTGLAAEIIGTFVLVYTVFSATDPKRNARDSHVPVLAPLPIGFAVFMVHLATIPITGTGINPARSIGAAVIFNNEKAWHNHWIFWVGPFVGAAIAAFYHQYILRAGAIKALGSFRSNA |  |  | binds | binds
